Assay results taken from article PMC7819943, “Rice protein-binding microarrays: a tool to detect cis-acting elements near promoter regions in rice”.
The list shows a part of the results.

molecular target: T1, OsSMF1 (Oryza sativa, UniProt Q6ZLB0 1-436); experiment: protein-binding microarray (RPBM); PBS, 2% BSA, 51.3 ng/ul salmon testes DNA, 50 uM zinc acetate, 200 nM TF, 25 C, 1 h; high values mean tight binding; settings: protein: recombinant; tags: N-terminal polyhistidine and DsRed monomer fusion (pET32a); chain copies: 2; label: CyDye5-dUTP incorporated in the synthesized complementary strand; 3' TTTTT single-stranded linker to array surface; dsDNA, one strand shown
T1 sequence: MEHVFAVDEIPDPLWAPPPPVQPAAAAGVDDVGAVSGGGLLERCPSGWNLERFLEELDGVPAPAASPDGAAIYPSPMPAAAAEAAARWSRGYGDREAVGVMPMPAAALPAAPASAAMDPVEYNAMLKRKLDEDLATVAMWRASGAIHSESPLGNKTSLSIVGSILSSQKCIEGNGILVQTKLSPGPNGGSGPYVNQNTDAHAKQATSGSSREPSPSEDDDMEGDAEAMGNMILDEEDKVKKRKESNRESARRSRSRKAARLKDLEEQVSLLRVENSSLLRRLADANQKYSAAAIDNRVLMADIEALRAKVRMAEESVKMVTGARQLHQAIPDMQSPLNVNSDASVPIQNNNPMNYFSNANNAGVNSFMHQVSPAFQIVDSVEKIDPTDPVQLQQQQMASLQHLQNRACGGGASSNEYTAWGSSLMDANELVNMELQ
Summary of the method: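 The binding signal is fluorescence intensity per feature, in arbitrary units, read on an Axon 4000B scanner. Polyhistidine- and DsRed-tagged transcription factors (N-terminal fusions) from E. coli BL21-CodonPlus were purified on Ni–NTA and applied at 200 nM for 1 h at 25 °C to a double-stranded, BSA-blocked custom Agilent array in buffer with 50 µM zinc acetate.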

Sequence | binding signal
GAGACAGGAACACGCCTGTCAGCATGGACACAGTGGCAACCGGAGTCACCTAGTGCAG | 3450 fluorescence intensity (a.u.)
CGAAGTCCACCTGCCACGGTTCTGGAGCTCCGCTCCTTTTCGGAGTCACCTAGTGCAG | 3210 fluorescence intensity (a.u.)
TGGGAGAGGGTAGTAGGTGGGCCGAGGTACACACGTGGGGCGGAGTCACCTAGTGCAG | 5560 fluorescence intensity (a.u.)
ACACCGTTACCATTAGTTAACAGAGTAGGGGCACGTGGCTCGGAGTCACCTAGTGCAG | 4530 fluorescence intensity (a.u.)
GACAGCCAAATGTCTGCACACACACACACTCACAACTGTCCGGAGTCACCTAGTGCAG | 5050 fluorescence intensity (a.u.)
GGCCACAGTCCGACCACGTATGCTGCCCTCCTCGCCCAATCGGAGTCACCTAGTGCAG | 8920 fluorescence intensity (a.u.)
GCCAACGCCGTCCCCGTCACCTCGCGCCTGCGCCCTCGTCCGGAGTCACCTAGTGCAG | 5360 fluorescence intensity (a.u.)
CGGATCCTCTCGGTATCACCTCGCGCCACGCAACCGCGGGCGGAGTCACCTAGTGCAG | 4740 fluorescence intensity (a.u.)
TGTTGCCGTCTCCCTGCGCGATTCCGCCGCCGCCGCGATGCGGAGTCACCTAGTGCAG | 26000 fluorescence intensity (a.u.)
AGCCCGCACGTTCGCCGCAATCCAGTTCCTGGCCCAACTACGGAGTCACCTAGTGCAG | 3300 fluorescence intensity (a.u.)
AAATTCCTGATTTACAGTGATCCCAGTCACCCCGGTCTTCCGGAGTCACCTAGTGCAG | 3350 fluorescence intensity (a.u.)
AGGCCTGCACGTCCCGTTCCAGGGCCTAGCTTGTTCCGCCCGGAGTCACCTAGTGCAG | 24200 fluorescence intensity (a.u.)
AGCACTACTCCAACGCAGCAACCAACACGTACCTCCACATCGGAGTCACCTAGTGCAG | 6420 fluorescence intensity (a.u.)
CATGCCAGTGACACGTACTGCAGGTGCAGTACAGCAGTGGCGGAGTCACCTAGTGCAG | 5170 fluorescence intensity (a.u.)
AGACCAAACTATCTCCAACTTGACTCATTAGCAGCAAACACGGAGTCACCTAGTGCAG | 3490 fluorescence intensity (a.u.)
TGCTTCAATTCGCGTGAACTCATCCAATCTGCATGCCGGTCGGAGTCACCTAGTGCAG | 20200 fluorescence intensity (a.u.)
CCGAGGCCCAATAAATTATGGGGTTGGCTCCAATAAATTACGGAGTCACCTAGTGCAG | 3940 fluorescence intensity (a.u.)
ATAAAGACCTAAGTTGCATAAATTGTCAAAGTTTAATCTGCGGAGTCACCTAGTGCAG | 32600 fluorescence intensity (a.u.)
GTGGGTTCTTTGTGGGGTCTCTTATAGTTTTCACTGCCAGCGGAGTCACCTAGTGCAG | 3610 fluorescence intensity (a.u.)
AATTTGGATTTGAATTATATCTGATTCAAATTTGAATTTGCGGAGTCACCTAGTGCAG | 3270 fluorescence intensity (a.u.)
TGTTTTCGTGATACTTACTACACTTAAATAAGAACGCAACCGGAGTCACCTAGTGCAG | 3890 fluorescence intensity (a.u.)

Quoted from the listing:
Under binding signal, GCCAACGCCGTCCCCGTCACCTCGCGCCTGCGCCCTCGTCCGGAGTCACCTAGTGCAG shows 5360 fluorescence intensity (a.u.)
Under binding signal, AGCACTACTCCAACGCAGCAACCAACACGTACCTCCACATCGGAGTCACCTAGTGCAG shows 6420 fluorescence intensity (a.u.)

The listing continues:

Sequence | binding signal
AGTAGCAGCCGGCGTGCTACTCCTCCGGTCAGCAGCAGCCCGGAGTCACCTAGTGCAG | 3550 fluorescence intensity (a.u.)
ACCTCAGAGAAAGAGCTGCGCCGAACCGTCACGAGGCGGCCGGAGTCACCTAGTGCAG | 3250 fluorescence intensity (a.u.)
GTTTTGGTCGGTCTCATTCGCTCGTTCCTCCGCCCGAGGCCGGAGTCACCTAGTGCAG | 4650 fluorescence intensity (a.u.)
TTATCCTACGTACAACACCTACTACAGCTATAGGTGTTGGCGGAGTCACCTAGTGCAG | 3700 fluorescence intensity (a.u.)
GCATACGCAGATGCCAACAAAGCAACATGCATGAATGTCACGGAGTCACCTAGTGCAG | 3430 fluorescence intensity (a.u.)
TCAATGGCGTCATACATTAGAATAAGGAGGGAGTAACTGACGGAGTCACCTAGTGCAG | 3240 fluorescence intensity (a.u.)
CGAGCCGCACGTCACCTGAACAATCTATCTGATCCAAAGGCGGAGTCACCTAGTGCAG | 5790 fluorescence intensity (a.u.)
CATGAACCTGTTACTTAATTATAGATAGCACTCATGAAGCCGGAGTCACCTAGTGCAG | 7130 fluorescence intensity (a.u.)
TCGCCGAGGGAAGGCCTACGAGCGGATCTGCCATGTGGCGCGGAGTCACCTAGTGCAG | 5200 fluorescence intensity (a.u.)
CATGCGCCACGTGATGCGTGCCACTAAACCATCGGCTGGCCGGAGTCACCTAGTGCAG | 4370 fluorescence intensity (a.u.)
GGAATTTCTGGGCGTGACAGGTGTACATGATGTATTCCATCGGAGTCACCTAGTGCAG | 3210 fluorescence intensity (a.u.)
TCCCACGCTGACTTAGCGCAGCTACTGCAGTCAAAGCGTCCGGAGTCACCTAGTGCAG | 3680 fluorescence intensity (a.u.)
TGCCTTATTTCTATGTGGGTAAGCTCATTTTGTTGTTACGCGGAGTCACCTAGTGCAG | 3180 fluorescence intensity (a.u.)
CATATTATGCTGTCATATCCTCGAGTATTCGTGTACCAATCGGAGTCACCTAGTGCAG | 4300 fluorescence intensity (a.u.)
AAACCAACCAGTATTGGATATGACACGTGCTAACACATACCGGAGTCACCTAGTGCAG | 7970 fluorescence intensity (a.u.)
ATTAATATATATATAAATGTGGGTAATGCTAGAAAGTCTTCGGAGTCACCTAGTGCAG | 21300 fluorescence intensity (a.u.)
TTTGAAAGACAAGTCATCCAAAGCTGACGAAACACTATATCGGAGTCACCTAGTGCAG | 3310 fluorescence intensity (a.u.)
TTTGACCGTGTCTTACCTACGTGGAGGATAACATGGAATTCGGAGTCACCTAGTGCAG | 5930 fluorescence intensity (a.u.)
CATCCGCACCCGTACATTATCCGCACCCGCTCCAAATCTGCGGAGTCACCTAGTGCAG | 3370 fluorescence intensity (a.u.)
AAGGCCCAGTAAAACCACTAGTGGAGCAGCATCAGCATCACGGAGTCACCTAGTGCAG | 3180 fluorescence intensity (a.u.)
TTCCCCGCACATCGAATCCCACACTCACCGACGCGTGGGCCGGAGTCACCTAGTGCAG | 4520 fluorescence intensity (a.u.)
